From publication PMC8436130
No constants are given. Whether binding was seen depends on the method and setting. In cells and extracts the contact can be indirect. Some results given as binding are weak or reduced against the parent protein; the word gives no strength.

By UniProt entry, the sequences of proteins in these tests, tags left out. Residues count along the entry.
UniProt P02545, residues 1-646: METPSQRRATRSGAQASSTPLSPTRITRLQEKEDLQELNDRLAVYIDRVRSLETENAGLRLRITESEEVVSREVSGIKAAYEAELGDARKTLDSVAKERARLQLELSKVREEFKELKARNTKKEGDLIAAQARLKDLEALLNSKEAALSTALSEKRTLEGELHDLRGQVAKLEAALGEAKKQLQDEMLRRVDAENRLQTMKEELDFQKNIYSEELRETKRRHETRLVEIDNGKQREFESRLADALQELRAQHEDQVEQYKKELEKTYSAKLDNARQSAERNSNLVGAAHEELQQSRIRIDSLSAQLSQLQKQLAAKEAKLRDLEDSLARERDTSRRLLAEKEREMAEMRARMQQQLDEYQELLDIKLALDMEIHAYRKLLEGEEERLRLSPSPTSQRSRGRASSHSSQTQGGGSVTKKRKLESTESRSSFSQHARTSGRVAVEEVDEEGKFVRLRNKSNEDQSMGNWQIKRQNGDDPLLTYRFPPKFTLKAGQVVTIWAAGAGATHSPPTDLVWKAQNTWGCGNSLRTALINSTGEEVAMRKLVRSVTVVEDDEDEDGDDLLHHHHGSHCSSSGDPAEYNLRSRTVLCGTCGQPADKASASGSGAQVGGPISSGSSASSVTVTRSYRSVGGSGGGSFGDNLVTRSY
UniProt Q86WV6: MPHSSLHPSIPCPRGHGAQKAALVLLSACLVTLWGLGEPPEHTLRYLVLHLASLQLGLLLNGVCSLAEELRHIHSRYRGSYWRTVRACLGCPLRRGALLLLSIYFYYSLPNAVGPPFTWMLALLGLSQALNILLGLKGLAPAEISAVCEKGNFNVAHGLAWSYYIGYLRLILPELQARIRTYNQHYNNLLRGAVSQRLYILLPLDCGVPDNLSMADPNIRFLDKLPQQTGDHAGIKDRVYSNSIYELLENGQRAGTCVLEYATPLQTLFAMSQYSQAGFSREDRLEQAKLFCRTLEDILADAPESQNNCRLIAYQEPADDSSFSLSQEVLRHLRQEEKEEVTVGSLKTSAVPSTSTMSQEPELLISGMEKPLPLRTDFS

Molecular target: Lamin A-GFP (UniProt P02545)
Experiment: FRET or BRET; FRET-FLIM; HEK293T cells transiently transfected with lamin A-GFP (donor) and STING-RFP (acceptor), fixed after 24 h in 3.7% formaldehyde; lamin A-GFP alone as negative and a tandem RFP-GFP construct as positive control

STING-RFP (from UniProt Q86WV6 1-379)
binding: binds
